Some of the results follow. The main result of the screen is listed elsewhere. These columns were measured beside it and carry no call. Compounds called inactive in the main read-out are mostly missing here. Potencies come from curve fits of mixed quality, noted in brackets.
Experiment: qHTS Assay for Lipid Storage Modulators in Drosophila S3 Cells;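 on cell number change: cells counted by Cell Tracker Red CMTPX staining in the red channel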
Conditions: BODIPY lipid droplet fluorescence, 18-24 h; for cell number change: measured here: cell count max response, cells fed with added oleic acid
Procedure, shortened: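 Drosophila S3 cells loaded with oleic acid (400 uM, as added) and compounds at several concentrations; lipid droplets imaged by 488-nm laser-scanning cytometry, 500–530 nm intensity and object ratio to cell channel. Percent activity normalized to 20 uM Triacsin C.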

[1] = measured here: lipid fluorescence (Fed channel) AC50, cells fed with added oleic acid
[2] = measured here: cell number channel AC50, cells fed with added oleic acid

## CCN(CC)CCCNC1CCS(=O)(=O)C1 (stereo not drawn)
  cell number change: 7.03%
[1]
  AC50: 4.11 µM [falling, partial curve, poor fit]

## CN(C)/C=N/c1nc2nccc(-c3ccccc3)n2n1
  cell number change: 33%
[2]
  AC50: 0.0517 µM [rising, full curve, poor fit]
[1]
  AC50: 4.11 µM [rising, full curve]

## CCOc1nc(-c2ccccc2Cl)ccc1C#N
[1]
  AC50: 0.731 µM [rising, partial curve, poor fit]

## Cc1cc(C)c2nc(C(F)(F)F)c(C#N)c(N)c2c1
  cell number change: 61.2%
[2]
  AC50: 2.59 µM [rising, full curve]
[1]
  AC50: 2.59 µM [rising, full curve]

## CC(=O)Nc1ccc(S(=O)(=O)N2CCSCC2)cc1
  cell number change: -32.9%
[2]
  AC50: 0.0058 µM [falling, full curve]
[1]
  AC50: 4.11 µM [rising, single point]

## c1ccc(Cc2noc(CN3CCCN(C4Cc5ccccc5C4)CC3)n2)cc1
  cell number change: 6.98%
[1]
  AC50: 16.4 µM [rising, single point]

## CC1CCN(C(=S)c2ccc(N(C)C)cc2)CC1
  cell number change: 19.7%
[1]
  AC50: 6.51 µM [falling, single point]

## O=[N+]([O-])c1ccccc1S(=O)(=O)NC1CCCCCCC1
  cell number change: -9.12%
[1]
  AC50: 1.46 µM [falling, full curve, poor fit]

## COc1ccc(CNC(=O)CCc2c(C)nc3ncnn3c2C)cc1
  cell number change: 23.7%
[1]
  AC50: 0.231 µM [rising, full curve, poor fit]

## Cc1cc(C)c(NC(=O)CSc2nc3ncc(Br)cc3[nH]2)c(Cl)c1
[1]
  AC50: 0.92 µM [falling, full curve]

## CCCCN(C)CCCNC(=O)/C=C1\Sc2ccccc2NC1=O
[2]
  AC50: 0.164 µM [falling, full curve, poor fit]
[1]
  AC50: 29.1 µM [rising, single point]

## O=C(CSc1nc2c(c(=O)n1-c1ccc(Br)cc1)SCC2)NCc1ccco1
[2]
  AC50: 0.13 µM [rising, full curve, poor fit]
[1]
  AC50: 0.116 µM [rising, full curve, poor fit]

## CCOc1ccc(N=C(C)c2ccccc2O)cc1
  cell number change: 12.1%
[1]
  AC50: 2.91 µM [falling, partial curve, poor fit]

## O=C(NCCCn1ccnc1)c1ccc(COc2ccccc2)o1
[2]
  AC50: 1.84 µM [rising, partial curve]
[1]
  AC50: 0.82 µM [rising, single point]

## N#CC1CC(c2ccccc2)Nc2cc(Cl)ccc2N1 (stereo not drawn)
  cell number change: -10.5%
[2]
  AC50: 0.146 µM [rising, partial curve, poor fit]
[1]
  AC50: 5.8 µM [rising, partial curve]

## COCCn1c(SCC(=O)N2CCCC2)nnc1C(C)C
  cell number change: -22.7%
[1]
  AC50: 2.91 µM [falling, full curve]

## CCOc1ccc(-c2nc(CSCC(=O)NCCCN3CCCC3=O)c(C)o2)cc1
  cell number change: 40.2%
[2]
  AC50: 0.058 µM [rising, full curve]

## COc1ccc(CN([C@H](C)CO)S(=O)(=O)N(Cc2ccccc2)[C@H](CO)C(C)C)cc1
  cell number change: 13%
[1]
  AC50: 0.0103 µM [rising, full curve, poor fit]

## COc1ccc(NC(=O)Cn2cc(C(=O)c3ccncc3)c(=O)c3cc(C)ccc32)cc1Cl
  cell number change: 13%
[1]
  AC50: 10.3 µM [rising, single point]

## CCOC(=O)N1CCN(C(=O)CN(Cc2ccccc2)S(=O)(=O)c2ccc(OC)c(C)c2)CC1
  cell number change: 93.4%
[1]
  AC50: 5.8 µM [rising, single point]

## O=C(NCC1CCCCC1)c1ccc(Cl)nc1
  cell number change: 4.62%

## CCc1ccc(NC(=O)CN(C(=O)N2CCN(CC)CC2)S(=O)(=O)c2ccc(C)cc2)cc1
  cell number change: -18.4%
[2]
  AC50: 0.291 µM [falling, full curve, poor fit]
[1]
  AC50: 0.291 µM [falling, full curve, poor fit]

## COC(=O)CCNc1n[nH]c(=O)[nH]c1=O
  cell number change: 10.8%
[2]
  AC50: 0.00517 µM [falling, full curve, poor fit]
[1]
  AC50: 29.1 µM [rising, single point]

## Cc1oc2ccc(NS(=O)(=O)c3cccc4cccnc34)cc2c1C(=O)OC(C)C
  cell number change: -42.9%
[2]
  AC50: 0.92 µM [falling, partial curve]
[1]
  AC50: 5.8 µM [rising, full curve]

## CC(=O)N1CCCc2ccccc21
  cell number change: -23.3%
[2]
  AC50: 3.26 µM [falling, single point]
[1]
  AC50: 29.1 µM [falling, single point]

## c1nc(N2CCCCCC2)c2[nH]cnc2n1
  cell number change: 14.4%
[1]
  AC50: 6.51 µM [rising, single point]

## CCc1noc(C)c1C(=O)N1CCCC(CCC(=O)NCc2cccc(OC)c2)C1 (stereo not drawn)
  cell number change: -10.9%
[1]
  AC50: 0.326 µM [falling, single point]

## CCc1ccc(S(=O)(=O)NCCc2csc(C)n2)s1
  cell number change: -13.7%
[1]
  AC50: 1.03 µM [falling, single point]

## CCOc1ccccc1CNCCOC
  cell number change: 96.5%
[2]
  AC50: 2.06 µM [falling, partial curve]

## COCCNC(=O)c1c(CSc2ccccc2)noc1C(=O)NCc1ccccc1
  cell number change: 8.11%
[1]
  AC50: 0.517 µM [rising, full curve, poor fit]

## O=S1c2ccccc2Nc2ccccc21
  cell number change: -19.3%
[1]
  AC50: 29.1 µM [rising, single point]

## Cc1cc(NC(=O)C(C)C)n(-c2nc3ccccc3s2)n1
[2]
  AC50: 0.651 µM [rising, full curve]
[1]
  AC50: 2.31 µM [rising, partial curve]

## CCN(CC)CCCNC(=O)CNC(=O)c1nn(-c2ccc(OC)c(OC)c2)c(=O)c2ccccc12
  cell number change: 9.91%

## COc1ccccc1CN(C)C(=O)C1COc2ccccc2O1 (stereo not drawn)
  cell number change: 9.84%
[1]
  AC50: 0.58 µM [falling, full curve, poor fit]

## Cc1ccc(-c2nnc(N)o2)cc1
[2]
  AC50: 0.58 µM [rising, single point]
[1]
  AC50: 0.58 µM [rising, single point]

## CC[C@H](C)Cc1cn([C@@H](CCCCNC(=O)OC(C)(C)C)C(=O)NCCCCCCCCCCC(=O)N2CCN(C(=O)OC(C)(C)C)CC2)nn1
  cell number change: 5.94%
[2]
  AC50: 0.92 µM [rising, single point]
[1]
  AC50: 29.1 µM [falling, single point]

## O=C(CC1SCCNC1=O)Nc1ccccc1Cl (stereo not drawn)
  cell number change: -16.3%
[2]
  AC50: 0.366 µM [rising, partial curve, poor fit]

## Cc1cccc(C)c1NC(=O)CNC(=O)CCCc1c[nH]c2ccccc12
[1]
  AC50: 0.082 µM [rising, full curve, poor fit]

## COc1cccc(CNn2cnnc2)c1OCc1ccccc1F
  cell number change: 6.5%

## O=C(NN=C(c1ccccc1)c1ccccc1)C(CCl)C1CCCCC1 (stereo not drawn)
  cell number change: 14.6%
[1]
  AC50: 0.116 µM [rising, full curve, poor fit]

## CN(C(=O)c1cccc(S(=O)(=O)N2CCCC2)c1)C1CCCCC1
  cell number change: -9.77%
[1]
  AC50: 0.103 µM [rising, single point]

## NS(=O)(=O)OCC1CCCCC1
  cell number change: 4.53%
[1]
  AC50: 29.1 µM [falling, single point]

## Cn1c(N)c(C(=O)c2cc(-c3ccccn3)nc3ccccc23)c(=O)[nH]c1=O
  cell number change: 4.86%
[2]
  AC50: 6.51 µM [falling, single point]
[1]
  AC50: 13 µM [falling, partial curve]

## O=C(Nc1cccc(Cl)c1)N1CCSc2cc(Cl)ccc21
  cell number change: -39.5%
[2]
  AC50: 10.3 µM [falling, single point]
[1]
  AC50: 29.1 µM [falling, single point]

## CC(C)NC(=S)N1CCC(Cc2ccccc2)CC1
  cell number change: 109%
[2]
  AC50: 18.4 µM [rising, partial curve, poor fit]
[1]
  AC50: 0.58 µM [rising, full curve, poor fit]

## CC(=O)NC(c1cccc([N+](=O)[O-])c1)c1ccc2cccnc2c1O (stereo not drawn)
  cell number change: -56.6%
[2]
  AC50: 14.6 µM [falling, partial curve, poor fit]

## CCOc1ccc(C(=O)NCC(=O)N2CCCCCCC2)cc1OCC
  cell number change: -6.15%
[1]
  AC50: 0.92 µM [falling, full curve, poor fit]

## COc1ccc(CC(NC(C)=O)C(=O)NC2CCN(S(=O)(=O)c3ccc(NC(C)=O)cc3)CC2)cc1 (stereo not drawn)
  cell number change: -5.13%
[1]
  AC50: 2.06 µM [falling, partial curve, poor fit]

## O=C(O)c1cccc2c1C(=O)c1ccc(-c3ccc(Cl)c(C(F)(F)F)c3)cc1S2(=O)=O
  cell number change: -18.6%
[2]
  AC50: 7.31 µM [falling, partial curve, poor fit]

## COc1ccc2c(/C=C/c3cc[n+](C)cc3)c[nH]c2c1
  cell number change: -94.4%
[1]
  AC50: 5.17 µM [falling, full curve]

## COCCN(C(=O)c1cccc(-n2cnnn2)c1)c1c(N)n(CC(C)C)c(=O)[nH]c1=O
  cell number change: -14.2%
[1]
  AC50: 29.1 µM [falling, single point]

## COc1ccc(CNC(=O)Cn2nc(C(F)(F)F)c3c2CCC3)cc1
  cell number change: -3.36%
[1]
  AC50: 29.1 µM [rising, single point]

## O=C(NCCN1CCOCC1)c1sc2cc(Cl)ccc2c1Cl
[1]
  AC50: 4.11 µM [falling, full curve]

## O=C(Nc1ccc([N+](=O)[O-])cc1)C(=O)Nc1cccc(C(=O)O)c1
  cell number change: -57.1%
[1]
  AC50: 16.4 µM [falling, single point]

## Cc1ccc(O)c(NC(=O)c2cc(-c3ccccc3)on2)c1
  cell number change: 8.03%
[1]
  AC50: 29.1 µM [falling, single point]

## O=C(Nc1ccccc1)Nc1cccc(NC(=O)Nc2ccccc2)c1F
  cell number change: 93.6%
[2]
  AC50: 20.6 µM [rising, single point]
[1]
  AC50: 29.1 µM [rising, single point]
